Results are given in words; binding and its absence hold for the method and conditions named. For part of these data: Binding calls can cover weak binding; strength is not graded here. For part of these data: Binding seen in cells or lysates may run through a third protein.

Chains of the proteins cited; added tags and fusions are not shown. Lines headed by an entry give the natural chain unless they say otherwise; changes in a name come on top. Residues count along the entry.
UniProt Q7M6Y3: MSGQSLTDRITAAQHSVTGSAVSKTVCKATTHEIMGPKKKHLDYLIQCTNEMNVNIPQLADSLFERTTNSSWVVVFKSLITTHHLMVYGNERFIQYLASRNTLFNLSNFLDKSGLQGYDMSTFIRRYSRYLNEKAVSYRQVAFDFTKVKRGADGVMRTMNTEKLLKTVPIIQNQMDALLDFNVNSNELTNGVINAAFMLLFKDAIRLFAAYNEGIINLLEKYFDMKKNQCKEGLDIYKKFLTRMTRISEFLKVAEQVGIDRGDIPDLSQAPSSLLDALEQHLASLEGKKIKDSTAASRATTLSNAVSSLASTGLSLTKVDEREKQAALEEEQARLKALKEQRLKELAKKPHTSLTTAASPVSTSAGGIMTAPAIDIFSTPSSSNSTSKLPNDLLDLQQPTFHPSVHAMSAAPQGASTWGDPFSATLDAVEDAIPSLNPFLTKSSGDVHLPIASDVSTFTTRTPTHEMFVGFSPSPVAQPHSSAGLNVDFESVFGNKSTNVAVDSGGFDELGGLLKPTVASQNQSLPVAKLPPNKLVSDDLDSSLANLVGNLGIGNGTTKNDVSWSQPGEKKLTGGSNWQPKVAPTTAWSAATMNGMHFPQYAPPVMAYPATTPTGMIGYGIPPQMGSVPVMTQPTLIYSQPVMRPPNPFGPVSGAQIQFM
UniProt P19490: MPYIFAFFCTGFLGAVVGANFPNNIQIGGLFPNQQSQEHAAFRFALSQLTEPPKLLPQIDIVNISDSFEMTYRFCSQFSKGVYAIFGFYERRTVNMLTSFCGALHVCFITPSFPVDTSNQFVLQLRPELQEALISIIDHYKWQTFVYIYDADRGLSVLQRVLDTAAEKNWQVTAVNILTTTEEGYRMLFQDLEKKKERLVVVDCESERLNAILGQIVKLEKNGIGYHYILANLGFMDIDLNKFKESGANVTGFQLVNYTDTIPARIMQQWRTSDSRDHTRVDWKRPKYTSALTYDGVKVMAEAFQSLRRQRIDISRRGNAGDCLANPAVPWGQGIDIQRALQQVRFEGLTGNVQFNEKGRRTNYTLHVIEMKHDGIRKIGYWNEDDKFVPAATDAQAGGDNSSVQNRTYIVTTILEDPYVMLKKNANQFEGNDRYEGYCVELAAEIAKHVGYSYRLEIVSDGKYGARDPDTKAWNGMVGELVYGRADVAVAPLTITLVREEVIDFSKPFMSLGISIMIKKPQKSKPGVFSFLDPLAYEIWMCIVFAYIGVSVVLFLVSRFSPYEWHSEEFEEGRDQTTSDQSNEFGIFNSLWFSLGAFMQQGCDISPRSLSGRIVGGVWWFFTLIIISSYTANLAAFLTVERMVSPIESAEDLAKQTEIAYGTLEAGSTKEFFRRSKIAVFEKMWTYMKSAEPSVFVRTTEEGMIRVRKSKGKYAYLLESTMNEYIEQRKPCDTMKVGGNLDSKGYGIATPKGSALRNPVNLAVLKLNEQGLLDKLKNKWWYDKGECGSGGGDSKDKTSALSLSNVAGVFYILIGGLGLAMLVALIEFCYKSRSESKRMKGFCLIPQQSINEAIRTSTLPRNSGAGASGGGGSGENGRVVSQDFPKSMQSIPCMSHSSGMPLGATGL
UniProt Q01097, residues 27-1482: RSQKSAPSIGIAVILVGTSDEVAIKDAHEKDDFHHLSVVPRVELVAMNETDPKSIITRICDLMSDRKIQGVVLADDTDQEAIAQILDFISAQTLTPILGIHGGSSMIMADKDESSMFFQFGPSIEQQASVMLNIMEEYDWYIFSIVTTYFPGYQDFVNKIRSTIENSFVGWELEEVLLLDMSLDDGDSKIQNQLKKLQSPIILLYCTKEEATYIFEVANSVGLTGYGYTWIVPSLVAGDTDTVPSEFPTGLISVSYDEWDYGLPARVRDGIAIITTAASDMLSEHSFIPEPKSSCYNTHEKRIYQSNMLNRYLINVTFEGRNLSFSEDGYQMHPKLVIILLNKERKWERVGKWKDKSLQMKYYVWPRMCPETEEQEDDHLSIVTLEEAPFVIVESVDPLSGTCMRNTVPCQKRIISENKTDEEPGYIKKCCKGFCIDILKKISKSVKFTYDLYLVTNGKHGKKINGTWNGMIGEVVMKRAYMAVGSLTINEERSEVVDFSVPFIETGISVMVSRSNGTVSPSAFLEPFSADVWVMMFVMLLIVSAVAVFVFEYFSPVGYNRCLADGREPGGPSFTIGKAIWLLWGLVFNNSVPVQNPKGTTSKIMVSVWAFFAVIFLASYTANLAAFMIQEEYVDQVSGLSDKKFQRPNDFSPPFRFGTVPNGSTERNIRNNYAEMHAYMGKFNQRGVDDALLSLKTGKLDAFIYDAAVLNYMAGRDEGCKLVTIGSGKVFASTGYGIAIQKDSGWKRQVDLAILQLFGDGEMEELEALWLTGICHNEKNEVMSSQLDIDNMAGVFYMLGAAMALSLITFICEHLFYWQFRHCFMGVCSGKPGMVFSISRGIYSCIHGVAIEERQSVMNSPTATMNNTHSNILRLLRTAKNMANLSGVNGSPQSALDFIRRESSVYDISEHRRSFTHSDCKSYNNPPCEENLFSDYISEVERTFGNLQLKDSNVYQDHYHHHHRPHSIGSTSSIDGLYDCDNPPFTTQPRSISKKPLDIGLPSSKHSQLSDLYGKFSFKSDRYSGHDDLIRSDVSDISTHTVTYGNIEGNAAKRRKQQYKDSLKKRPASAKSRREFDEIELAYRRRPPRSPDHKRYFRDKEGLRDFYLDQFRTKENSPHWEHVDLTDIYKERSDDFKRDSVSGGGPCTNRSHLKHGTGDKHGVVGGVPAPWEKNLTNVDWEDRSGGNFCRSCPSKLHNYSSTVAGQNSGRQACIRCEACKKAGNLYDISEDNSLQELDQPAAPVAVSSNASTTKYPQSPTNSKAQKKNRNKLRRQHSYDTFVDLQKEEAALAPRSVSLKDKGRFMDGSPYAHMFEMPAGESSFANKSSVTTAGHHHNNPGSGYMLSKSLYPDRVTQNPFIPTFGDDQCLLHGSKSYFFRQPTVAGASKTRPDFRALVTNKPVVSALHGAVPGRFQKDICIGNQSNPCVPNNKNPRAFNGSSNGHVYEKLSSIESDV

This is an account of results in PMC9132451.

For experiment [1], the target named is GST-ANTH domain of CALM (UniProt Q7M6Y3). The experiment in a line: condition: 30 μg GST-fusion protein with 4 mg of whole mouse brain extract; pull-down; 30 μg GST or GST-fusion protein on Glutathione Sepharose beads with 4 mg whole mouse brain extract (10 mM HEPES, 1% Triton X-100), overnight, 4°C; immunoblotting; only the target purified.
For experiment [2], the target named is GST-tagged cytoplasmic tail of GluA1 (UniProt P19490). The experiment in a line: pull-down; in vitro binding: 5 μg recombinant purified GST or GST-fusion protein (on beads) with 5 μg His-fusion protein in 300 μl 20 mM HEPES pH 7.4, 100 mM NaCl, 2 mM MgCl2, 0.1% saponin, 1 hour, 4°C; immunoblotting with GST- and His-tag antibodies; both purified. (Immunoblotting shows a protein as a band on a membrane.)

Turning to “GluN2A (NMDAR subunit), endogenous (from UniProt P35436 23-1464) (receptor)”, in experiment [1], the binding entry is listed as “no binding”.

For “GluN2B (NMDAR subunit), endogenous (from UniProt Q01097 27-1482) (receptor)”, in experiment [1], the binding entry is listed as “no binding”.

Regarding “His6-tagged ANTH domain of CALM, wild type (from UniProt Q7M6Y3) (domain or fragment)”, the binding entry in experiment [2] was “binds”.
